In PubChem BioAssay AID504842 (National Center for Advancing Translational Sciences (NCATS), 2011):
The whole screen tested about 330,000 compounds, of which about 100 (0.03%) were called active. The inconclusive results got no clear call from the source; some entries with a clear call stand among them for comparison. Calls come from the whole dose curve; as a rule, active = well fitted inhibition curve with a large enough effect; inconclusive = small, poorly fitted or top-dose-only effect; inactive = flat fitted curve, though single readings scatter. Potencies beside an inconclusive call are fits to weak or partial responses and may not hold up.

Test system: Chaperonin Mm-Cpn (Methanococcus maripaludis)
Test: Inhibitors of TCP-1 ring complex (TRiC) of Methanococcus maripaludis (MmCpn): qHTS; note: nearly all actives have a fitted effect of over 80% in size;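 for Potency: enzyme at 25 nM with ATP substrate at 10 µM during the reaction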
Conditions: purified Mm-Cpn ATPase, ADP Transcreener TR-FRET; series mostly up to 76.9 µM
Summary of the method: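 ATPase turnover read by TR-FRET ADP competition (Eu cryptate antibody/ADP-d2, 665/590 nm): 10uM ATP final, 25nM Mm-CPN final, 30 min 37degC after 10-min compound preincubation, pH 7.4 Tris/KCl/MgCl2/DTT buffer.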
Potency is the fitted concentration of half-maximal effect.

Potency, inconclusive:
CCN1C(=O)[C@H]2[C@@H](c3ccc(C)cc3)N3C(=O)N(c4ccc(C(F)(F)F)cc4)C(=O)[C@@]3(CC)[C@H]2C1=O 100 µM [inhibitor, single point], Cc1ccc(C)c(Cn2c(=O)n(C)c(=O)c3sccc32)c1 15.8 µM [inhibitor, single point], CCOc1ccc(S(=O)(=O)NC2CCCC2)cc1 100 µM [inhibitor, single point], O=P(O)(CN1CCCCC1)CN1CCCCC1 89.1 µM [inhibitor, single point], Cc1cc(N2C(=O)C(O)=C(C(=O)c3cc4ccccc4o3)C2c2ccc(Br)cc2)no1 (stereo unspecified) 100 µM [inhibitor, single point], N#Cc1c(-c2ccccc2Cl)cc(-c2ccccc2)nc1Br 251 µM [inhibitor, partial curve, poor fit], O=C(CN1C(=O)c2ccccc2C1=O)Nc1ccccc1C(=O)NC1CCCCCC1 89.1 µM [inhibitor, single point], Cc1cccc(NC(=O)NCc2ccc3c(c2)cc(C)n3C)c1 56.2 µM [inhibitor, partial curve, poor fit], Cc1c(-c2ccccc2)nc2ccccc2c1C(=O)Nc1ccncc1 22.4 µM [inhibitor, single point], Cc1ccc(-c2ccc(C(=O)NCCCNC(=O)c3cnccn3)o2)cc1Cl 79.4 µM [inhibitor, single point], COc1ccc(-c2cc(C(=O)NN)n(-c3ccccc3)n2)cc1 15.8 µM [inhibitor, single point], COc1ccc(NC(=O)c2nc3nccc(C)n3n2)cn1 8.91 µM [inhibitor, partial curve, poor fit], COC(=O)c1sc(=S)sc1C(=O)OC 100 µM [inhibitor, single point], Cn1c(C(=O)OC(C(=O)NC2CCCCC2)c2cccnc2)cc2sccc21 (stereo unspecified) 56.2 µM [inhibitor, single point], CCCn1cc(CN2CCC(n3nccc3NC(=O)C(OC)c3ccccc3)CC2)c(C)n1 (stereo unspecified) 17.8 µM [inhibitor, single point], O=C(Nc1ccc2c(c1)OCCO2)c1cc2sccc2n1Cc1ccc(F)cc1 100 µM [inhibitor, single point], Cc1ccc(S(=O)(=O)Oc2ccccc2/C=N/NC(=O)c2c(Cl)cnn2C)cc1 89.1 µM [inhibitor, single point], CC(C)(C)c1ccc(NC(=O)c2ccc(=O)[nH]n2)cc1 100 µM [inhibitor, single point], CCOc1ccc(-n2ccnc(SCC(=O)Nc3cccc(OC)c3)c2=O)cc1 79.4 µM [inhibitor, partial curve, poor fit], COc1ccc(C(=O)NN2CCOCC2)cc1 50.1 µM [inhibitor, partial curve, poor fit], Cc1ccc(S(=O)(=O)NCCN=Cc2ccc(N(C)C)cc2)cc1 63.1 µM [inhibitor, single point], Cc1cc(C)cc(N(C(=O)c2csnn2)C(C(=O)NC2CCCC2)c2cccnc2)c1 (stereo unspecified) 89.1 µM [inhibitor, single point], CCc1nnc(NS(=O)(=O)c2ccc(NC(=O)/C=C/C(=O)O)cc2)s1 79.4 µM [inhibitor, single point], CCSc1ncc(Cl)c(C(=O)Nc2ccc(S(N)(=O)=O)cc2)n1 100 µM [inhibitor, single point], Cc1onc(-c2ccccc2Cl)c1C(=O)N1CCN(Cc2ccc3c(c2)OCO3)CC1 22.4 µM [inhibitor, single point], CCOc1ccc(N2CC(C(=O)NCc3ccc(F)cc3)CC2=O)cc1 (stereo unspecified) 10 µM [inhibitor, single point], Cc1sc2nc(CN3CCCC3)nc(NCc3ccncc3)c2c1C 22.4 µM [inhibitor, single point]

Potency, active:
COc1ccc(CN(Cc2cccn2C)C(=O)c2cc3cc(OC)ccc3[nH]2)cc1 44.7 µM

Potency, inactive:
CC(C)(C)[C@H](NC(=O)c1ccc(N)c(Cl)c1)C(=O)N1CCC[C@H]1C(=O)N[C@H](C#N)Cc1nn[nH]n1, Cc1ccc(C)c(NS(=O)(=O)c2ccc3oc(=O)ccc3c2)c1, O=C(c1ccc(Cl)c(S(=O)(=O)N2CCCCC2)c1)N1CCCCC1, Cc1cc(/C=N\NC(=O)COc2cccc3cccnc23)c(C)n1-c1ccccc1, C/C=C\C=C\C(=O)Nc1cccc(C2=NOC3(C2)C[C@@H](C(N)=O)N(C(=O)C(c2ccccc2)c2ccccc2)C3)c1 (stereo partly specified), C=CCn1c(-c2ccc(OC)cc2)nc2nc3ccccc3nc21, COCCNC(=O)C(=O)N/N=C(\C)CC(=O)Nc1ccc(Cl)cc1Cl, COc1cccc(CNC(=O)COC(=O)C2CCN(c3ccc(C(F)(F)F)cn3)CC2)c1, COc1c(Br)cc2c(C)c(C(=O)O)oc2c1Br, CCCCOC(=O)Nc1sc2c(c1C(=O)OC)CCC2, C/C(=N\NC(=O)c1ccc(Cl)cc1)c1ccccn1, COc1ccc(-c2nc3ccccc3s2)cc1, CCN(CC)c1ccc(/C=N/NS(=O)(=O)c2cccc([N+](=O)[O-])c2)cc1, COc1cc(Cl)ccc1OCc1cc(C(=O)N2C[C@H]3CC[C@H]2C3)no1, O=C(Nc1nc(-c2ccc3c(c2)Cc2ccccc2-3)cs1)c1ccccc1, COc1ccc(C2C(C#N)=C(N)Oc3cc4c(cc32)OCO4)cc1 (stereo unspecified), Cc1ccc(SCc2nc3ccccc3n2CC(=O)Nc2ccccc2)cc1, Cc1ccc(NC(=O)CCC(=O)c2cccs2)cc1F
